Measurements from PubChem BioAssay AID504467 (National Center for Advancing Translational Sciences (NCATS), 2011).
In all, about 330,000 compounds went through this assay and about 7,700 (2.3%) were called active. The inconclusive results got no clear call from the source; some entries with a clear call stand among them for comparison. Calls follow the shape of the dose curve; as a rule, active = well fitted inhibition curve with a large enough effect; inconclusive = small, poorly fitted or top-dose-only effect, or effect the other way; inactive = flat fitted curve, though single readings scatter. Potencies beside an inconclusive call are fits to weak or partial responses and may not hold up.

Assay: qHTS screen for small molecules that inhibit ELG1-dependent DNA repair in human embryonic kidney (HEK293T) cells expressing luciferase-tagged ELG1; also: nearly all actives have a fitted effect of over 55% in size
Conditions: HEK293T ELG1-luciferase reporter, luminescence, 16 h, DNA damage induced by 5-fluorouridine; series mostly up to 46.1 µM
In short: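 HEK293T cells expressing luciferase-tagged ELG1 (2,000/well) received 5-Fluorouridine plus compound or DMSO for 16 hr at 37 °C. Luciferase was read by ONE-Glo luminescence after 30 min at room temperature.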
Potency is read from the fitted curve at half-maximal effect.

Row | SMILES | Potency
1 | CCNc1nc(NC(C)C)nc(SCCOC(=O)c2ccccc2)n1 | inactive
2 | Cc1ccccc1OCc1nnc(SCc2cc(=O)[nH]c3ccccc23)n1-c1ccccc1 | inactive
3 | Cc1cc(NC(=O)Nc2ccccc2F)ccc1Br | inconclusive: 2.59 µM [activator, partial curve]
4 | Cc1cc(N/N=C/c2c(O)ccc3ccccc23)nc(-c2ccccc2O)n1 | active: 23.1 µM
5 | FC(F)(F)c1ccc(N=Cc2sc(N3CCOCC3)nc2-c2ccccc2)cc1 | inconclusive: 16.4 µM [activator, partial curve, poor fit]
6 | O=C(N/N=C/c1cccc(NC(=O)c2ccc(Cl)cc2)c1)c1ccc(O)cc1 | inconclusive: 6.51 µM [activator, single point]
7 | Cc1cccc(-n2c(N)cc(=O)nc2SCC(=O)NC2CCCCC2)c1 | inactive
8 | Nc1nc(N)nc(-c2cc(O)ccc2O)n1 | active: 1.16 µM
9 | COc1ccccc1N1CCN(C(=O)CN2C(=O)c3ccccc3S2(=O)=O)CC1 | inactive
10 | CCN(c1ccccc1)S(=O)(=O)c1cc(C(=O)Nc2ccc(F)c(F)c2)ccc1F | active: 20.6 µM
11 | O=C(Nc1ccc(Br)cc1)c1ccc(F)c(S(=O)(=O)NCc2cccs2)c1 | inconclusive: 6.51 µM [inhibitor, partial curve]
12 | CCOc1ccccc1Oc1c(C)oc2cc(OC(=O)N3CCOCC3)ccc2c1=O | inactive
13 | CC(=O)N1c2c(cc(Br)cc2S(=O)(=O)N2CCOCC2)CC1C (centres undefined) | inactive
14 | CCCCCNC(=O)c1cccnc1SCC(=O)Nc1ccccc1OC | inconclusive: 25.9 µM [inhibitor, single point]
15 | O=C(CSc1nnc(-c2ccccn2)o1)Nc1ccccc1C(F)(F)F | inconclusive: 23.1 µM [activator, partial curve]
16 | Cc1ccc(NC(=O)c2ccc(CSc3nnc(-c4ccncc4)n3C)cc2)cc1 | inactive
17 | COc1ccc(-c2nn(-c3ccccc3)cc2N)cc1 | inconclusive: 16.4 µM [activator, partial curve]
18 | O=C(Nc1cccc(/C=C/c2ccccn2)c1)c1ccc(-n2cncn2)cc1 | active: 3.26 µM
19 | COc1ccccc1N1CCN(C(=O)c2cccc(S(=O)(=O)N3CCCCCC3)c2)CC1 | active: 12.6 µM
20 | COc1ccc2ccccc2c1CN1CCN(C(=O)c2ccccc2)CC1 | active: 18.4 µM
21 | COc1nc(Nc2ccc([N+](=O)[O-])cc2)nc(NC(C)C)n1 | inconclusive: 20.6 µM [inhibitor, single point]
22 | Cc1ccc2c(CC(=O)Nc3sccc3C(N)=O)coc2c1 | inconclusive: 13 µM [activator, partial curve]
23 | O=C(Nc1nccs1)c1ccc(-c2ccc([N+](=O)[O-])cc2)o1 | inconclusive: 16.4 µM [activator, partial curve]
24 | COc1ccccc1NC(=O)Cc1nnc(SCC(=O)NC2CCCCC2C)n1C (centres undefined) | inactive
25 | O=C(C1CC1)N1N=C(c2ccc(F)cc2)CC1(O)C(F)(F)F (centres undefined) | inconclusive: 35.5 µM [activator, single point]

Four structures out of the list, ordered by heavy-atom count, falling:
Row | SMILES | Potency
9 | COc1ccccc1N1CCN(C(=O)CN2C(=O)c3ccccc3S2(=O)=O)CC1 | inactive
14 | CCCCCNC(=O)c1cccnc1SCC(=O)Nc1ccccc1OC | inconclusive: 25.9 µM [inhibitor, single point]
1 | CCNc1nc(NC(C)C)nc(SCCOC(=O)c2ccccc2)n1 | inactive
17 | COc1ccc(-c2nn(-c3ccccc3)cc2N)cc1 | inconclusive: 16.4 µM [activator, partial curve]

(further entries)

Row | SMILES | Potency
26 | O=C(/C=C\c1ccc2c(c1)OCO2)CC1(O)C(=O)Nc2ccccc21 (centres undefined) | inactive
27 | CN(c1ccccc1)S(=O)(=O)c1cc(C(=O)Nc2nc3ccccc3[nH]2)ccc1Cl | inconclusive: 25.9 µM [inhibitor, partial curve, poor fit]
28 | CCCC(=O)Nc1ccc(-c2nc3ncccc3o2)cc1 | inconclusive: 9.2 µM [activator, partial curve]
29 | CCOC(=O)c1cnn2c(C)cc(-c3ccc(F)cc3)nc12 | inconclusive: 20.6 µM [activator, partial curve]
30 | Cc1ccc(S(=O)(=O)C(C#N)c2nc3ccccc3nc2N2CCC(C)CC2)cc1 (centres undefined) | inconclusive: 4.11 µM [activator, single point]
31 | CCOC(=O)C1CCCN(C(=O)COc2ccc(C(=O)c3ccccc3)cc2)C1 (centres undefined) | inconclusive: 16.4 µM [inhibitor, single point]
32 | O=C(CSc1nnnn1-c1ccccc1)Nc1ncc2c(n1)CC(c1ccccc1)CC2=O (centres undefined) | inactive
33 | COc1ccc(CN2CCN(CCSc3ccc(C)cc3)CC2)c(OC)c1OC | inconclusive: 23.1 µM [inhibitor, single point]
34 | O=C(O)CCN1C(=O)/C(=C2\C(=O)N(Cc3ccc(F)cc3)c3ccccc32)SC1=S | inconclusive: 20.6 µM [activator, single point]
35 | O=C(CCC(=O)N1CCN(c2ccccn2)CC1)Nc1nnc(C(F)(F)F)s1 | inactive
36 | CC1(C)Cc2c(sc3nnn(Cc4ccccc4)c(=O)c23)CO1 | inconclusive: 16.4 µM [inhibitor, single point]
37 | CCOC(=O)c1c(COc2ccccc2)oc2ccc(O)cc12 | inactive
38 | CC1=NOC(=O)/C1=C\c1ccc2c(c1)OCO2 | inconclusive: 29.1 µM [activator, single point]
39 | CCCC[N+](CC#CCO)(CC#Cc1ccccc1)CCCC | inactive
40 | Cc1cccc(C)c1Nc1nnc(SCC(=O)NCCCN2CCCC2=O)s1 | inactive
41 | O=C(CSCc1ccccc1)NNC(=S)Nc1cccc(Cl)c1Cl | inactive
42 | COc1cc(C(=O)Nc2ccccc2N2CCOCC2)ccc1OCC(=O)N1CCOCC1 | inactive
43 | CCOC(=O)c1cnc(SC2CC(=O)N(c3cccc(OC)c3)C2=O)nc1N (centres undefined) | inactive
44 | O=C(COC(=O)Cc1c[nH]c2ccccc12)Nc1cc(S(=O)(=O)N2CCOCC2)ccc1Cl | inactive
45 | COc1ccccc1NC(=O)CCn1c(=O)c2cccn2c2ccccc21 | inactive
46 | CN(CC1CCCO1)S(=O)(=O)c1ccc(C(=O)N2CCN(c3ccccc3)CC2)cc1 (centres undefined) | active: 23.1 µM
47 | Cc1ccnc2c(N3C(=O)C4C5c6ccccc6C(c6ccccc65)C4C3=O)cccc12 (centres undefined) | inconclusive: 18.4 µM [inhibitor, single point]
48 | COc1ccc(OCc2ccc(-c3nc4ccccc4c(=O)n3N)o2)cc1 | inconclusive: 2.06 µM [activator, partial curve, poor fit]
49 | Cc1cccc(C(=O)N(Cc2ccco2)c2c(N)n(Cc3ccccc3)c(=O)[nH]c2=O)c1 | inconclusive: 0.58 µM [activator, partial curve, poor fit]
50 | C=CCN(c1cccc(C(F)(F)F)c1)S(=O)(=O)c1cccc(C(=O)OCC(=O)NC)c1 | inactive

Row | SMILES | Potency
51 | COc1cc([N+](=O)[O-])cc(/C=N/NC(=O)Cn2nccc2C)c1O | inactive
52 | NC(N)=NN=C1c2ccccc2-c2ccccc21 | inactive
53 | CC(C)C(=O)NC(c1ccc([N+](=O)[O-])cc1)c1c(O)ccc2ccccc12 (centres undefined) | inconclusive: 29.1 µM [inhibitor, partial curve, poor fit]
54 | CCc1ccc(NC(=O)CS(=O)CC(=O)Nc2ccc(-n3cnnn3)c(C)c2)cc1 (centres undefined) | inactive
55 | Nc1c(C(=O)NCc2ccccc2)nnn1Cc1cccc(Cl)c1 | inconclusive: 4.11 µM [inhibitor, full curve]
56 | COc1cccc(COC(=O)Cc2ccc(S(=O)(=O)N3CCOCC3)s2)c1OC | inactive
57 | Cc1ccc(NC(=O)CN2C(=O)CC(C)S(=O)(=O)c3ccccc32)cc1 (centres undefined) | inactive
58 | COc1ccccc1NC(=O)C(C)OC(=O)/C=C/c1ccc2ccccc2n1 (centres undefined) | inconclusive: 20.6 µM [activator, partial curve, poor fit]
59 | COc1ccccc1N1CCN(C(=O)c2ccc3[nH]c4c(c3c2)CCCC4)CC1 | inactive
60 | Cc1nnc(SCc2cnc(-c3ccc(C(C)C)cc3)s2)n1C | inconclusive: 2.31 µM [activator, partial curve]
61 | O=C(NCc1ccccc1)c1cc(-c2cccs2)on1 | inconclusive: 20.6 µM [activator, partial curve]
62 | O=C(NCCNC(=O)c1cc(OCC(F)(F)F)ccc1OCC(F)(F)F)Nc1ccc(OC(F)(F)F)cc1 | inconclusive: 29.1 µM [inhibitor, single point]
63 | CC1CCC(NC(=O)Cn2c(=O)[nH]c3ccsc3c2=O)CC1 (centres undefined) | inconclusive: 23.1 µM [activator, single point]
64 | O=c1nccc(N/N=C/c2ccccc2O)[nH]1 | inconclusive: 29.1 µM [inhibitor, single point]
65 | CC(=O)Nc1ccc(S(=O)(=O)NCc2ccc(C)cc2)cc1 | inactive
66 | Cc1cc(C(=O)Nc2nc3c(s2)CCCC3)cs1 | inconclusive: 0.411 µM [activator, full curve]
67 | Cc1ccc2c(c1)-c1c(ssc1=S)C(C)(C)N2C(=O)c1ccco1 | inconclusive: 13 µM [inhibitor, partial curve, poor fit]
68 | c1cncc(-c2csc(-c3cccnc3)n2)c1 | inactive
69 | COc1ccc2c(=O)c(-c3ccc4c(c3)OCO4)coc2c1 | inconclusive: 1.3 µM [activator, partial curve]
70 | CCOC(=O)c1ccc(OCCOc2ccccc2C)cc1 | inconclusive: 28.2 µM [activator, single point]
71 | CCNC(=S)N1CCC(C(=O)c2ccc(Cl)cc2)CC1 | inconclusive: 16.4 µM [inhibitor, partial curve, poor fit]
72 | Cc1cccc(NC(=O)CSCC(=O)N(CCC(C)C)c2c(N)n(Cc3ccccc3)c(=O)[nH]c2=O)c1 | inconclusive: 3.66 µM [inhibitor, single point]
73 | COCCN1CCN(c2cc(-c3ccccc3)nc3cc(-c4cccc(F)c4)nn23)CC1 | active: 14.6 µM
74 | Cc1nc2c(-c3ccccc3)cnn2c(N2CCOCC2)c1C | inconclusive: 10.3 µM [activator, partial curve]
